Earlier results in patent publication US6770640B1, “1-Carboxylmethyl-2-oxo-azepan derivatives useful as selective inhibitors of MMP-12” (Aventis Pharmaceuticals Inc., priority 1998, dated 2004).
At least one structure is not confirmed: it was looked up by name or label, or the drawing left a doubt.

System: B16-BL6 murine melanoma
Settings: intraperitoneal administration; lung colonies produced by intravenous injection of B16-BL6 murine melanoma in C57BL/6N mice

SMILES: CNC(=O)[C@H](Cc1ccccc1)NC(=O)[C@H](CC(C)C)[C@H](CSc1cccs1)C(=O)NO [batimastat]
- inhibition in the growth and metastatic spread and number of lung colonies: significant inhibition
